66 sequences from PubChem BioAssay AID1347423 (Functional Genomics Laboratory (NCATS/FGL), 2020) can be followed below.

The whole screen tested about 52,000 sequences, of which about 210 (0.4%) were called active.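 Rule for the calls: active = gene whose silencing raises cell survival under the drug, median off-target-corrected z-score across its silencing RNAs 2 or more; inactive = the rest.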 The list shows a part of the results.

This experiment is described as follows: Resistance to Poly (ADP-Ribose) Polymerase inhibitor: Gene Identification via Genome-wide siRNA Screen. The note with it: mouse BRCA2 R2336H ES cells, olaparib, CellTiter-Glo viability; stronger effect = higher value. In short, it runs like this: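 Mouse BRCA2 R2336H ES cells were reverse-transfected with siRNA (20 nM final), treated at 48 h with 500 nM olaparib, and read by CellTiter-Glo after 72 h. Scores: MAD-based z per siRNA, median per gene, seed off-target correction.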
With GGUCUAGGUCUGAAGAUCCTT against Stxbp4, the z-score was inactive: 1.48.

As for “GGGCUGUGGAAACAAUUUATT against 9430016A21Rik”, the z-score is inactive: 0.534. In the case of CCUUUGGAAUUUCUAAUACTT against Sil it was inactive: 1.33; in that of GGAGCAGUCUAUCUUUGGUTT against Dbn1, inactive: -1.07. As to GGACAAUUGAAUACCUAGATT against Hadha, the z-score is inactive: 1.9.

For GGAAACACGUCUCCUCCAUTT against Krt2-25, the z-score was inactive: -0.0404. As for GCCACCUUUAAAGAACCUUTT against Zfhx1a, the z-score is inactive: -1.56. On to GGAGCAGGAAGUAUGAAUGTT against Gpr39, for which the z-score was inactive: 0.593. Take GGAGGAGUUUGACUUCGACTT against Alox12: the z-score was inactive: -0.128.

For “GGAUUAGAAGAACUAAGAGTT against 4930418G15Rik”, the z-score is inactive: 0.532. Regarding CCAGUUUAGUGGCUCUUCCTT against Lrpb7, the z-score was inactive: 0.415.

Consider CCUCGUAAGCGUGUGGAUUTT against Gm1100, for which the z-score is inactive: -0.36. CCUGAGUCUCGGUUCACAATT against Kif12: the z-score was inactive: -1.37. In the case of GCUCAUGACCCAUAUGUGGTT against Cryaa, the z-score is inactive: -0.217.

In the case of CCUGCCCUCUUUUAAAUAATT against Ap3s1, the z-score was inactive: 0.136. As to GGUCCAUUUUUUGGUGUGCTT against BC051665, the z-score was inactive: -1.11. Turning to GGAGCUAAGUCGAAGCUUCTT against Gmppa, the z-score is inactive: 1.16. Regarding GGAGACUAAUGAACAGAAATT against Fgd4, the z-score is inactive: -0.16.

In the case of GCCCAAUUGGCUUUUGUUATT against Olfr1305, the z-score was inactive: 0.264. For the sequence GCUCUCUGAAAGAGUAUUGTT against Khdrbs2, the z-score was inactive: -0.0883.

For “CCGCCAUGUUCAUUGAAGATT against 2210013K02Rik”, the z-score was inactive: -0.0947.

As for GCAACCAUCCAACAACCUGTT against Prkca, the z-score was inactive: -0.00416. For the sequence GGCCAUCUGUGAAAAAUUCTT against Dhcr24, the z-score was inactive: 1.4. Take “GGAAAAACUGAGAAAACUUTT against 4930404J24Rik”: the z-score is inactive: -0.447. GCUCUUGUAAAUUUGUGAATT against Usp10: the z-score was inactive: -1.02. Regarding CGUGGAUUACCACCCUAAGTT against Klrc2, the z-score is inactive: 0.387.

Take GGACGUGAAUGUGUUUGACTT against Cyp26b1: the z-score was inactive: 0.429. On to CGGAGUAAACAAUACAGUCTT against Gnmt, for which the z-score was inactive: -0.312. With CCUUUUAGCUCUGUGUAUUTT against Gldc, the z-score was inactive: 0.597. Turning to GGUAUCACAUCAACAGGCCTT against Klk8, the z-score was inactive: -0.171.

For the sequence CCAGUGUUGGUAACAAUAUTT against Stat4, the z-score is inactive: 0.522.

On to “GGAUUCCAUGGACAAAACUTT against E030041M21Rik”, for which the z-score is inactive: 2.17. In the case of “GCAGCUGAGAAAGUCGUUCTT against 2010007H12Rik”, the z-score was inactive: -0.00273.

Turning to “GGCUCAAGUUUGGAGUUUUTT against 2410137M14Rik”, the z-score is inactive: 0.411. On to “GGUCCAAUUACUGAAGGUUTT against 1700094C09Rik”, for which the z-score is inactive: -1.52. With “GGAAGAGCAACAUGUUUAATT against 5430400N05Rik” the figure was inactive: 0.999. CCUCUAAAUCAAUGAGACATT against Zfp30: the z-score is inactive: 0.568. GGAAAUUCUGAGGAAGAUUTT against Olfr744: the z-score was inactive: 0.204.

For the sequence GGCCUGAAAUAUAUGCUGGTT against Cst7, the z-score was inactive: 0.761. For the sequence GGUAAUGAUACCUUGAAUGTT against H60, the z-score was inactive: 1.88.

Regarding GGAGUGGAAGAAGAAGUAUTT against Centg3, the z-score was inactive: -1.56. GGAUUUAGCCAAUCAAUCUTT against Cdc14b: the z-score is inactive: 0.657. With GGUGAAGUCCCAGCUUGAATT against Cstb the figure was inactive: -1.07; with GGAAAUCCAUGAGAAGGUGTT against Ctbp2, inactive: -1.18; with GGCUGAAUGACUGCACUGGTT against Vamp5, inactive: 1.5. In the case of GGAUGUGGAUGCUUACACCTT against Cdc23, the z-score was inactive: -2.31. With CGGCUACGAGUGUGAACUGTT against Fgf7, the z-score is inactive: -0.206. With “GCCAGUUUUGGUAUCCCGUTT against A330042H22” the figure was inactive: 1.21; with GGCUUAUAUCUGAUUGAUGTT against Rom1, inactive: -0.235. For the sequence “CCACCUUUACGAUAAUGAUTT against 1700108L22Rik”, the z-score is inactive: 0.442. In the case of GGUGGACUUCAACCUGAUUTT against Nodal it was inactive: -0.636; in that of GUGUGAACAGAGGCAGAAATT against Xlr3a, inactive: -1.26. Turning to GGCAAUUGGCUUAAACACATT against Serpinb9c, the z-score was inactive: 0.166. With GGAGCAUCAUUAUUCUGCATT against Gm527, the z-score was inactive: 0.145. In the case of “GCCGGCAACACAUUUCUGUTT against 5330439J01Rik” it was inactive: -0.131.

Take CCAAUAUCUCCAAAUAGAATT against Atp8b1: the z-score was inactive: 1.4.

For GGAUUUCCCAGGAAGCGAATT against 4-Sep, the z-score was inactive: -0.724. For GGUGAAGCAGUUUGACUUCTT against Rbm18, the z-score is inactive: 1.17. As to GGAGGUUUAUAAAAUCGACTT against Tgfb2, the z-score is inactive: -0.718. Take “GGCAAAGCACUGGUUGUGUTT against C130053K05Rik”: the z-score was inactive: 0.195. In the case of UGAUGCUAAGACUGAACCATT against Olfr541, the z-score was inactive: -0.579. For “GGAAGACAAUGCAAUAAUUTT against 2810460C24Rik”, the z-score is inactive: -0.0666. As to GGACAAAAGAAAAGUAUCGTT against Cdx4, the z-score is inactive: -0.927. In the case of GGCGAUCCACAAGUACAAUTT against Polb, the z-score is inactive: -0.226. On to GGGACUCUGAUGGUUUUGATT against Dapp1, for which the z-score is inactive: -0.534. Turning to GGCAGAAUUUUCCAACUGATT against Tisp78, the z-score was inactive: 1.84.
